Laboratory results: PubChem BioAssay AID504764 (Drosophila RNAi Screening Center, 2011)
The screen tested about 22,000 reagents; shown is a random part of those that have a named target and a result. In the full data, 403 (1.9%) got an active call. 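Unnormalised raw counts per well; ratio z-scores behind the hit calls and whether each hit raises or lowers signal are not deposited.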 Unmarked entries are inactive. Not given: the amount of reagent.

Purpose: 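Genome-wide screen for regulators of Notch-driven gene expression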 (primary screen)
System: Drosophila Kc167 cells
Knock-down reagent: long dsRNA against Drosophila genes
Timing: about 5 days (4 days dsRNA, then 24 h after transfection)
Challenge: transfection of constitutively active membrane-tethered Notch lacking the extracellular domain, read 24 h later
Detection: 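Light from a Notch-responsive E(spl)m3 luciferase reporter under active Notch, with control-promoter and no-Notch reporter wells to normalise; raw counts from paired wells a and b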
Reading the numbers: induced reporter light, run 1, well a and induced reporter light, run 1, well b: higher = more light from the Notch target reporter with active Notch; control promoter light, run 1, well a and control promoter light, run 1, well b: higher = more light from the viral control promoter (cell number, transfection, viability); uninduced reporter light, run 1, well a: higher = more light from the Notch target reporter without active Notch
Active means: 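Hit if the duplicate-averaged log2 ratio of induced to control-promoter light gives a plate-wise z beyond ±2, or induced to uninduced beyond ±1.8; weak-control or discordant-duplicate wells dropped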
Calls: active = modifier hit (raised or lowered Notch signal); inactive = not a hit

CG34434 [DRSC18134] gave induced reporter light, run 1, well a = 1.64e5; induced reporter light, run 1, well b = 1.88e5; control promoter light, run 1, well a = 3.47e5; control promoter light, run 1, well b = 3.06e5; uninduced reporter light, run 1, well a = 15025.
Knock-down of vg (vestigial) [DRSC07715] gave: induced reporter light, run 1, well a = 1.68e5 (active); induced reporter light, run 1, well b = 1.63e5; control promoter light, run 1, well a = 1.85e5; control promoter light, run 1, well b = 1.65e5; uninduced reporter light, run 1, well a = 12055.
Depletion of CG17440 [DRSC18126] came out at: induced reporter light, run 1, well a = 1.20e5; induced reporter light, run 1, well b = 98515; control promoter light, run 1, well a = 1.89e5; control promoter light, run 1, well b = 1.54e5; uninduced reporter light, run 1, well a = 8060.
CG15219 [DRSC03715] scored induced reporter light, run 1, well a = 56725; induced reporter light, run 1, well b = 59305; control promoter light, run 1, well a = 51110; control promoter light, run 1, well b = 61480; uninduced reporter light, run 1, well a = 4380.
acs (arcus) [DRSC08185] gave induced reporter light, run 1, well a = 1.21e5; induced reporter light, run 1, well b = 1.07e5; control promoter light, run 1, well a = 1.31e5; control promoter light, run 1, well b = 1.45e5; uninduced reporter light, run 1, well a = 7410.
After knock-down of Sox102F [DRSC17204], the screen gave induced reporter light, run 1, well a = 2.05e5; induced reporter light, run 1, well b = 1.84e5; control promoter light, run 1, well a = 2.11e5; control promoter light, run 1, well b = 2.31e5; uninduced reporter light, run 1, well a = 13490.
Ent2 (Equilibrative nucleoside transporter 2) [DRSC02124] scored induced reporter light, run 1, well a = 2.31e5; induced reporter light, run 1, well b = 2.11e5; control promoter light, run 1, well a = 2.43e5; control promoter light, run 1, well b = 2.13e5; uninduced reporter light, run 1, well a = 20130.
For Abi (Abelson interacting protein) [DRSC14099], the entry reads induced reporter light, run 1, well a = 1.04e5; induced reporter light, run 1, well b = 1.26e5; control promoter light, run 1, well a = 97990; control promoter light, run 1, well b = 75520; uninduced reporter light, run 1, well a = 8725.
Arl1 (ADP ribosylation factor-like 1) [DRSC09667] gave induced reporter light, run 1, well a = 1.42e5; induced reporter light, run 1, well b = 1.54e5; control promoter light, run 1, well a = 1.85e5; control promoter light, run 1, well b = 1.78e5; uninduced reporter light, run 1, well a = 6930.
CG15084 [DRSC06515] showed induced reporter light, run 1, well a = 67230; induced reporter light, run 1, well b = 69815; control promoter light, run 1, well a = 1.42e5; control promoter light, run 1, well b = 1.85e5; uninduced reporter light, run 1, well a = 6520.
Against CG14795 [DRSC18513] the deposit lists induced reporter light, run 1, well a = 1.10e5; induced reporter light, run 1, well b = 1.00e5; control promoter light, run 1, well a = 1.57e5; control promoter light, run 1, well b = 1.74e5; uninduced reporter light, run 1, well a = 8045.
CG13331 [DRSC06366] gave induced reporter light, run 1, well a = 91260; induced reporter light, run 1, well b = 93555; control promoter light, run 1, well a = 1.10e5; control promoter light, run 1, well b = 1.26e5; uninduced reporter light, run 1, well a = 9600.

4 entries already listed, ordered by “control promoter light, run 1, well b”, low to high:
CG13331 [DRSC06366] — induced reporter light, run 1, well a: 91260; induced reporter light, run 1, well b: 93555; control promoter light, run 1, well a: 1.10e5; control promoter light, run 1, well b: 1.26e5; uninduced reporter light, run 1, well a: 9600
CG14795 [DRSC18513] — induced reporter light, run 1, well a: 1.10e5; induced reporter light, run 1, well b: 1.00e5; control promoter light, run 1, well a: 1.57e5; control promoter light, run 1, well b: 1.74e5; uninduced reporter light, run 1, well a: 8045
Arl1 (ADP ribosylation factor-like 1) [DRSC09667] — induced reporter light, run 1, well a: 1.42e5; induced reporter light, run 1, well b: 1.54e5; control promoter light, run 1, well a: 1.85e5; control promoter light, run 1, well b: 1.78e5; uninduced reporter light, run 1, well a: 6930
CG15084 [DRSC06515] — induced reporter light, run 1, well a: 67230; induced reporter light, run 1, well b: 69815; control promoter light, run 1, well a: 1.42e5; control promoter light, run 1, well b: 1.85e5; uninduced reporter light, run 1, well a: 6520

The results go on:
tmod (tropomodulin) [DRSC13993] showed induced reporter light, run 1, well a = 85265; induced reporter light, run 1, well b = 1.31e5; control promoter light, run 1, well a = 1.25e5; control promoter light, run 1, well b = 1.23e5; uninduced reporter light, run 1, well a = 9175.
tmod (tropomodulin) [DRSC14314] showed induced reporter light, run 1, well a = 77260; induced reporter light, run 1, well b = 64960; control promoter light, run 1, well a = 1.16e5; control promoter light, run 1, well b = 1.16e5; uninduced reporter light, run 1, well a = 5790.
Silencing of tmod (tropomodulin) [DRSC15076] gave: induced reporter light, run 1, well a = 1.41e5; induced reporter light, run 1, well b = 1.36e5; control promoter light, run 1, well a = 1.89e5; control promoter light, run 1, well b = 1.86e5; uninduced reporter light, run 1, well a = 12700.
For tmod (tropomodulin) [DRSC17062], the values are induced reporter light, run 1, well a = 1.66e5; induced reporter light, run 1, well b = 1.80e5; control promoter light, run 1, well a = 2.71e5; control promoter light, run 1, well b = 3.12e5; uninduced reporter light, run 1, well a = 12392.
CG30158 [DRSC04956] gave induced reporter light, run 1, well a = 37800; induced reporter light, run 1, well b = 48895; control promoter light, run 1, well a = 60045; control promoter light, run 1, well b = 63265; uninduced reporter light, run 1, well a = 2175.
CG30158 [DRSC04974] gave induced reporter light, run 1, well a = 2.03e5; induced reporter light, run 1, well b = 1.97e5; control promoter light, run 1, well a = 1.99e5; control promoter light, run 1, well b = 2.16e5; uninduced reporter light, run 1, well a = 14982.
CG30158 [DRSC04975] showed induced reporter light, run 1, well a = 1.47e5; induced reporter light, run 1, well b = 1.57e5; control promoter light, run 1, well a = 1.84e5; control promoter light, run 1, well b = 1.52e5; uninduced reporter light, run 1, well a = 12970.
Against CG30158 [DRSC05012], the entry reads induced reporter light, run 1, well a = 1.49e5; induced reporter light, run 1, well b = 1.52e5; control promoter light, run 1, well a = 1.88e5; control promoter light, run 1, well b = 1.70e5; uninduced reporter light, run 1, well a = 12170.
Depletion of MED31 (Mediator complex subunit 31) [DRSC12142] gave: induced reporter light, run 1, well a = 55280; induced reporter light, run 1, well b = 59935; control promoter light, run 1, well a = 27840; control promoter light, run 1, well b = 23595; uninduced reporter light, run 1, well a = 6088.
For CG12644 (retired record) [DRSC17850], the values are induced reporter light, run 1, well a = 1.49e5; induced reporter light, run 1, well b = 1.61e5; control promoter light, run 1, well a = 3.14e5; control promoter light, run 1, well b = 2.97e5; uninduced reporter light, run 1, well a = 9565.
Ugt37A3 (UDP-glycosyltransferase family 37 member A3) [DRSC15937] gave induced reporter light, run 1, well a = 90160; induced reporter light, run 1, well b = 85300; control promoter light, run 1, well a = 79490; control promoter light, run 1, well b = 59225; uninduced reporter light, run 1, well a = 5430.
CG15831 (retired record) [DRSC20816] gave induced reporter light, run 1, well a = 1.18e5; induced reporter light, run 1, well b = 93515; control promoter light, run 1, well a = 1.42e5; control promoter light, run 1, well b = 1.35e5; uninduced reporter light, run 1, well a = 10800.
